This note sets out measurements from article PMC10687533.

By UniProt entry, the sequences of proteins in these tests, tags left out.
UniProt Q01827: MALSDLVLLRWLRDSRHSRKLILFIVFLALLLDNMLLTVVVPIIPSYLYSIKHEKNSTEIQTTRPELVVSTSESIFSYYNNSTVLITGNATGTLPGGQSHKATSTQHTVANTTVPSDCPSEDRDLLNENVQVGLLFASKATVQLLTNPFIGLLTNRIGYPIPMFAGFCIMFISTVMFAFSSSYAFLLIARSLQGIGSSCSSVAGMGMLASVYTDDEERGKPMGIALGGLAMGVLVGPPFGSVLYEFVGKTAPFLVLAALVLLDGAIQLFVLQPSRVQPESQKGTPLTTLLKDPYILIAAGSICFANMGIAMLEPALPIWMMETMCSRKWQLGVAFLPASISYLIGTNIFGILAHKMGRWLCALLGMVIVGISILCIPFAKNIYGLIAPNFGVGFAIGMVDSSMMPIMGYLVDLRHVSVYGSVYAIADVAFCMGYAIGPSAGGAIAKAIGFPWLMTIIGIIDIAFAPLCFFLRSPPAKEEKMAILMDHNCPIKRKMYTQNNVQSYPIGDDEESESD

These are yes or no findings as the source states them, for the method shown. Binding seen in cells or lysates may run through a third protein. Some results given as binding are weak or reduced against the parent protein; the word gives no strength. Where a sequence is shown, tags or fusion partners need not be part of it.

In this experiment the target is vesicular monoamine transporter 2 (VMAT2) (rat) (UniProt Q01827). Description: co-IP; both proteins overexpressed in transfected cells (HeLa for Fig. 1A); lysis buffer 150 mmol/L NaCl, 50 mmol/L Tris-HCl pH 8.0, 5 mmol/L EDTA, 0.4% NP-40; antibodies 2 h at 4 C, protein A/G agarose 2 h; Western blot. (In western blotting, separated proteins are transferred to a membrane and probed.)

B1: Flag-tagged sorting nexin 5 (SNX5) (protein, UniProt B1H267 1-404)
chain: MAAVPELLEQQEEDRSKLRSVSVDLNVDPSLQIDIPDALSERDKVKFTVHTKTTLPTFQSPEFSVTRQHEDFVWLHDTLTETTDYAGLIIPPAPTKPDFDGPREKMQKLGEGEGSMTKEEFAKMKQELEAEYLAVFKKTVSSHEVFLQRLSSHPVLSKDRNFHVFLEYDQDLSVRRKNTKEMFGGFFKSVVKSADEVLFSGVKEVDDFFEQEKNFLINYYNRIKDSCAKADKMTRSHKNVADDYIHTAACLHSLALEEPTVIKKYLLKVAELFEKLRKVEGRVSSDEDLKLTELLRYYMLNIEAAKDLLYRRTKALIDYENSNKALDKARLKSKDVKLAETHQQECCQKFEQLSESAKEELINFKRKRVAAFRKNLIEMSELEIKHARNNVSLLQSCIDLFKNN
Turning to B1, the binding result was “binds”.
